Reference: patent US10792272B2, “Methods for treatment of Clostridium difficile infections” (priority 2016, dated 2020)
Some of these results come from one statement about several compounds together.

Tested on: C. difficile strains 630 (CD630) and 4118 (CD4118)
Test: MIC / growth inhibition against C. difficile, covering both strains
Assay type: cell-based, Clostridium difficile
Conditions: MIC ratio vs B. thetaiotaomicron, P. distasonis, P. nigrescens

SMILES: O=C(Nc1ccc(Oc2ccc(Cl)cc2)cc1)c1cc(Cl)cc(Cl)c1O [Compound 8, 3,5-Dichloro-N-(4-(4-chlorophenoxy)phenyl)-2-hydroxybenzamide]
- selectivity for C. difficile over the Gram-negative gut commensals tested: ≥ 32 fold
